## Results of single-concentration screens

T. brucei: 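Whole-parasite assay of Trypanosoma brucei over 72 hours; the read-out is not stated. Concentration: 30 µM. The record gives no direction; compounds that gave an IC50 in retests scored well above the rest, so higher reads as stronger inhibition. Values scatter widely below zero; nearly all retest evidence comes from the higher of the two concentrations used. Size under these conditions: about 64,000 compounds, about 940 of them at 50% or above in at least one test.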
Toxoplasma: 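Assay of Toxoplasma gondii numbers, read through their beta-galactosidase reporter with a colour substrate. Concentration: 10 µM. The record gives no direction; the compounds picked for IC50 retests had high values, so higher reads as fewer parasites. Size under these conditions: about 67,000 compounds, about 260 of them at 50% or above in at least one test.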

Each number is a percent effect as filed.
The record does not define 0% and 100%; most values in the screen are far below 50% and negative numbers occur (in some assays of this library far below -100).
The compounds are a random part of those screened.
A dash means the value is not listed here; it may have been measured.

Compound	T. brucei	Toxoplasma
C1CCc2nnc(CNc3nc(C4CC4)nc4c3CCNCC4)n2CC1	-5.824%	14.71%
O=C1OCCN1c1cccc(CNCc2cc(F)ccc2F)c1	5.128%	0.2271%
Cc1cnc(C(=O)N2CCCC(n3ccnc3C)C2)cn1 (stereo not given)	-3.62%	-0.1883%
CCc1noc(C(C)N(C)CC(=O)Nc2ccc(Cl)c(C(F)(F)F)c2)n1 (stereo not given)	-13.53%	14.66%
CC(C)C(=O)N1CCCC(Cc2cccnc2)C1 (stereo not given)	-0.4929%	-37.64%
Cc1nn(C)c(C)c1S(=O)(=O)NCC1CCN(c2ccccn2)CC1	-17.51%	-6.169%
Cc1noc(C(C)C)c1C(=O)N1CCC(n2cccn2)CC1	-69.32%	3.557%
CCn1ccnc1CN1CCN(CCC(=O)NC(C)(C)C)CC1C (stereo not given)	4.738%	8.633%
COc1cccc(CN2CCCCC2c2n[nH]cc2-c2cc(C)no2)c1.Cl (stereo not given)	52.03%	-20.34%
CC(=O)N1CCC2(CC1)CCN(C(=O)c1cccc(C(F)(F)F)c1)C2	38.42%	-3.508%
NC(=O)CNC1(c2ccc(Br)cc2)CCOCC1	-49.7%	15.12%
CO[C@H]1CNC[C@@H]1NC(=O)c1cc(C)nc2c(C)c(C)ccc12	-47.73%	5.615%
Cc1ccc(Cl)cc1NCc1nc2[nH]c(C)c(C)c(=O)n2n1	-0.7151%	18.19%
COCCN(C(=O)c1ccccn1)c1nc2c(s1)CCc1c-2cnn1C	4.204%	-40.42%
[H][C@]12CC[C@]([H])(CN(Cc3cccc(O)c3)C1)N(Cc1c(C)noc1C)C2=O	-17.65%	1.321%
CN(C)CCNC(=O)c1nc2c(o1)CN(C(=O)c1cccnc1)C2.O=C(O)C(F)(F)F.O=C(O)C(F)(F)F	-12.41%	2.592%
Cc1cc(CN2CCN(Cc3ccccc3F)CC2)no1	-16.5%	13.43%
CC(C)C(NCc1ccc(Cn2cncn2)cc1)c1ccc(F)cn1 (stereo not given)	-13.9%	20.24%
Cc1cc(=O)n2nc(Oc3ccc(C#N)cc3Cl)sc2n1	98.96%	9.431%
O=C(CCC1CCCO1)NCc1ccnc(-n2cccn2)c1 (stereo not given)	-38.45%	-6.968%
CN1CCN(Cc2cnc3n2CCN(C(=O)N2CCCC2)C3)CC1	-5.45%	3.938%
Cn1c(C2CCCN2C(=O)CN2CSCC2=O)nc2ccccc21 (stereo not given)	-18.96%	-1.42%
CN(C)Cc1nnc(C2CCCN(c3cc(C(F)(F)F)ccn3)C2)n1C (stereo not given)	-	-35.32%
Cc1cc(NC(=O)CCN(CC2CCOC2)C2CC2)no1 (stereo not given)	-21.65%	-5.112%
CC1(C)Cc2c(cnn2-c2cccc(F)c2)C(NC2CCSCC2)C1 (stereo not given)	99.5%	-6.761%
CN1CCOC(CNCc2nc(-c3cccnc3)no2)C1 (stereo not given)	8.676%	11.33%
CCn1cc(CN2CCC(c3ncc(Cl)cc3S(C)(=O)=O)CC2)c(C)n1	9.551%	-8.508%
O=C(O)C(F)(F)F.O=C(O)C(F)(F)F.[H][C@]12CCC[C@@]1(COc1ccccn1)CN(S(=O)(=O)c1cccnc1)C2	-37.96%	16.3%
CCCn1cc(NC(=O)c2ccncc2)ccc1=O	4.597%	5.114%
O=C(C[S+]([O-])Cc1ccc(F)cc1Cl)NC1CCCC1 (stereo not given)	2.101%	-3.335%
Cc1cc(C)n(C2=NC(NCCC(C)C)c3c(sc4c3CCCC4)N2)n1 (stereo not given)	0.8534%	-32.33%
COc1ccc(Cn2nnnc2SCC2CCCN(C)C2)cc1 (stereo not given)	0.4932%	6.27%
CC[C@H](C)[C@H](NC(=O)Cn1ccc2ccc(F)cc21)C(=O)OC	-	5.547%
Cc1cc(C)c(CCNC(=O)CN2CCCN(C(N)=O)CC2)c(C)c1	-79.31%	-6.423%
COc1ccccc1C(=O)N1CCN(C(=O)CCn2ccnc2)CC1	-70.21%	3.887%
NC(=O)C1(Cc2ccccc2-c2ccccc2)CCCN(CC2CC2)C1 (stereo not given)	-10.18%	-0.1664%
[H][C@]12CN(Cc3ccc[nH]3)C[C@@]1([H])OCCN(C(=O)c1ccccc1)C2	-58.09%	-31.88%
Cc1nnc2n1CCN(CCOc1ccc(C(C)(C)C)cc1)C2	-12.16%	-8.81%
C/C=C(\C)CN1C[C@H](c2cccc(OC)c2)[C@@H](N)C1	-56.25%	-1.665%
Cc1ccc2c(c1)SCC(=O)N2Cc1noc(C2CC2)n1	-18.82%	13.32%
CC(C)c1cc(=O)[nH]c(-c2ccccc2CN2CCC(C)(C)C2)n1	-	-3.629%
CS(=O)(=O)c1cccc(OCC(=O)N2CCCC2c2ccccc2Cl)c1 (stereo not given)	-21.76%	-7.609%
O=C(O)C(c1ccc2c(c1)OCO2)N1CCC(O)(c2cccnc2)CC1 (stereo not given)	-6.868%	5.877%
CCOCCCNC(=O)C(NC(=O)Cc1cccs1)c1ccc(C)cc1 (stereo not given)	-26.76%	-24.26%
O=C(c1cn(-c2ccc(F)cc2)nn1)N1CCCC(n2cccn2)C1 (stereo not given)	-	-2.504%
COC(=O)c1ccc2c(c1)CCCN2S(=O)(=O)c1cn(C)c(C)n1	5.045%	44.59%
Cc1nn(CCNC(=O)c2cc(C3CC3)[nH]n2)c(C)c1Cl	-33.39%	4.263%
CCNc1cc2c(nn1)CCN(C(=O)C1COc3ccccc3C1)C2 (stereo not given)	19.24%	-12.44%
O=C(NCc1ccccc1Cn1cncn1)C1CCC1	13%	4.66%
CN(CCCc1cc(-c2ccc(F)cc2)n(C)n1)CC(=O)NC(N)=O	0.464%	-19.7%
COc1ccc(C[C@H]2CN(C3CCOCC3)CC[C@H]2OCC2CC2)cc1.O=C(O)C(F)(F)F	12.65%	14.97%
CS(=O)(=O)NCc1nnc2n1CCN(Cc1cccnc1)C2	-308.6%	-0.07138%
[H][C@@]12CCN(C(=O)COC)C[C@]1(c1nc(C)no1)CCO2	-14.93%	-1.847%
O=C(NCCn1cccn1)c1ccn(-c2cccc(F)c2)n1	-2.634%	2.71%
CC(O)CNC(=O)Nc1ccc(Br)cc1Br (stereo not given)	-17.8%	12.61%
COc1ccc(OCC(O)CN2CCN(c3nccs3)CC2)cc1 (stereo not given)	21.68%	14.07%
Cn1cnc2c1C(COCc1cccnc1)N(Cc1ccccn1)CC2 (stereo not given)	24.77%	3.526%
Fc1cccc(-c2cccc(N3CCC(NC4CCCOC4)CC3)c2)c1 (stereo not given)	10.96%	40.73%
C=C(C)CN(Cc1cccc(O)c1)C1CCC(O)CC1 (stereo not given)	-6.571%	0.3721%
O=C(CO)N1CCC2(CC1)CC(=O)N(Cc1cc(F)cc(F)c1)C2	-8.514%	12.91%
Cc1c(-c2nc3cc(S(=O)(=O)N4CCCC4)ccc3n2C)cnn1C	-19.11%	-14.18%
CCCS(=O)(=O)NCC1CCOc2ccccc2C1 (stereo not given)	-21.36%	11.13%
O=C(O)C1CCCN1c1nc(-c2ccc(Cl)cc2)cc(C(F)(F)F)n1 (stereo not given)	-38.97%	8.669%
c1ccc(-c2nc(CN3CCCC(Cn4cncn4)C3)cs2)cc1 (stereo not given)	51.63%	26.36%
Cc1cnn(CC2CCN(CC(O)COc3ccc(F)cc3)CC2)c1 (stereo not given)	-4.985%	-0.8899%
CN(Cc1noc(C(C)(C)C)n1)C1CCCN(c2cccnn2)C1 (stereo not given)	-25.85%	-11.64%
Cc1noc(C)c1-c1nc(N(C)C)ncc1-c1cnccn1	-21.85%	10.99%
Cc1cc(Nc2ccc(F)cn2)cc(C2CCCN2)n1 (stereo not given)	23.65%	-24.83%
Cc1c(CS(C)(=O)=O)cccc1NCCCC1CCCC1	-5.675%	1.299%
Cc1ccc(Oc2ncccc2CNC2CCSCC2)cn1	-26.93%	-0.8696%
Cc1nn(CC(=O)Nc2cccc(F)c2)c(N)c1C#N	-21.31%	4.429%
CCCc1nc(N2CC[C@@H](c3ccc4ccccc4c3)[C@H](O)C2)no1	-34.14%	3.107%
O=C(Cn1ccc2c(Cl)cccc21)N[C@@H](C(=O)O)c1ccccc1	60.67%	-6.336%
Cc1nc(CN2CCN(C(C)c3nc(C4CC4)no3)CC2)no1 (stereo not given)	-	6.444%
CCOc1ccc(S(=O)(=O)NCCCc2ccc(N(C)C)cc2)cc1F	9.386%	12.87%
CC(=O)Nn1c(C)cc(CN2CCCN(Cc3ccncc3)CC2)c1C	7.352%	4.417%
O=C(O)c1cc(S(=O)(=O)Nc2cccc3c2OCCO3)ccc1F	-19.43%	5.02%
CC(C)n1cc(-c2nc3cc(S(=O)(=O)N4CCCC4)ccc3n2C)cn1	-18.54%	-6.681%

Data taken from ChEMBL document CHEMBL3988442, “University of Dundee, Small-Polar-MMV Screening Library” (2021).